Measurements as given in paper PMC6712044.
No constants are given. Whether binding was seen depends on the method and setting. Binding seen in cells or lysates may run through a third protein. Some results given as binding are weak or reduced against the parent protein; the word gives no strength. For part of these data: Sequences can lack the tags named with a protein.

Sequences of proteins named here, by UniProt entry; tags and fusion partners are left off.
UniProt Q14145: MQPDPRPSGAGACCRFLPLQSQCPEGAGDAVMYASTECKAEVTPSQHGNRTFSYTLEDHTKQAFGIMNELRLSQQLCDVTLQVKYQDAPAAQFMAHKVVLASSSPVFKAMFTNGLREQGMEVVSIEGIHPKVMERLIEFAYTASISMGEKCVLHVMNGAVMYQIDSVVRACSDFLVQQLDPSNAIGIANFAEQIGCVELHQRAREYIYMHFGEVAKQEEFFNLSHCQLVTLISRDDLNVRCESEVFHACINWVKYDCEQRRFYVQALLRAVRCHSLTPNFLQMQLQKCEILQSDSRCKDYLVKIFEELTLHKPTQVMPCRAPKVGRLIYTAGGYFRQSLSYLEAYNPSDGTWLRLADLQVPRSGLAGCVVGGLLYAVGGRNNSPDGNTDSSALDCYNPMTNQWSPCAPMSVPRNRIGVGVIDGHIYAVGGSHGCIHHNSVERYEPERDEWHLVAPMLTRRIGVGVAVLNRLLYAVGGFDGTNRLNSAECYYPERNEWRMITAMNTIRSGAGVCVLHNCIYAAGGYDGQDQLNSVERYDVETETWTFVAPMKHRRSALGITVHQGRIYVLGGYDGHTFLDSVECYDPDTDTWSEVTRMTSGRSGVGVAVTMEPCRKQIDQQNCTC

Assays:
HA-PIDD = target: T1, HA-PIDD (UniProt Q9HB75); experiment: co-IP; HEK293T cells transiently transfected with FLAG-KEAP1 and HA-PIDD, lysed 48 h after transfection; IP with anti-FLAG or anti-HA on protein G-Sepharose, 2 h at 4 °C, washed three times with PBS; immunoblot
T1 sequence: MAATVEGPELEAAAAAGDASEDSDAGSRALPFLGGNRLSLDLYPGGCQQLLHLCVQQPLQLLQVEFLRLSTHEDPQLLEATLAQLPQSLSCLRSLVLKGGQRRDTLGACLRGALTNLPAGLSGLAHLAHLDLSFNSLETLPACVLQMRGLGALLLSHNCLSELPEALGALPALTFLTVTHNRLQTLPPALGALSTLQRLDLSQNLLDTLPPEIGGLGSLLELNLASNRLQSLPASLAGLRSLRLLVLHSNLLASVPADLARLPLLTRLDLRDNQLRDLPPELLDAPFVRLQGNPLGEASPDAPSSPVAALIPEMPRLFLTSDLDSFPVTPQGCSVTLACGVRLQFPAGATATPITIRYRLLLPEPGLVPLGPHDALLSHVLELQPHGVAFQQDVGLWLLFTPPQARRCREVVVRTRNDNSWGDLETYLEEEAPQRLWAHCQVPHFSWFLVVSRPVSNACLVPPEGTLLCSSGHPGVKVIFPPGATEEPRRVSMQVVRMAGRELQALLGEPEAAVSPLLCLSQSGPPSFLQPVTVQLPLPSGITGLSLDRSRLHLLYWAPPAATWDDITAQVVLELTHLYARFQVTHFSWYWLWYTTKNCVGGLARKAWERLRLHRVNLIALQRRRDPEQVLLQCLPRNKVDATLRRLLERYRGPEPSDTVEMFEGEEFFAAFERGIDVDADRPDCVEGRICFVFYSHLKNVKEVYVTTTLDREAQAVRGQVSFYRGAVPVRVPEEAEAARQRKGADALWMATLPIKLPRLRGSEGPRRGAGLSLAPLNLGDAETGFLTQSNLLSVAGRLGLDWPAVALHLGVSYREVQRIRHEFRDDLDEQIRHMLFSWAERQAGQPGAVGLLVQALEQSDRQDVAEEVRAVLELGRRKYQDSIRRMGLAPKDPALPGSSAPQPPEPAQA

FLAG-KEAP1 = FLAG-KEAP1 (UniProt Q14145); experiment: as above
[1] = target: endogenous KEAP1 (human (endogenous in H1299)) (UniProt Q14145); experiment: co-IP; endogenous proteins in H1299 NSCLC cell lysate; reciprocal IP with anti-PIDD or anti-KEAP1 on protein G-Sepharose, 2 h at 4 °C, washed three times with PBS; immunoblot

FLAG-KEAP1 (from UniProt Q14145 1-624) was tested, and the binding (HA-PIDD) was “binds”.

B1: HA-PIDD (protein, UniProt Q9HB75 1-910)
chain: T1 sequence
In the case of B1, the binding (FLAG-KEAP1) is reported as “binds”.

B2: endogenous PIDD (protein, UniProt Q9HB75 1-910)
chain: T1 sequence
With B2 the binding [1] was “binds”.
